{"source": "PubChem BioAssay AID493246 (Drosophila RNAi Screening Center, 2011)", "test": "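Genes fly cells need to grow and stay alive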 (primary screen)", "cells": "Drosophila Kc and S2R+ cells", "reagents": "long dsRNA against Drosophila genes", "measurement": "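Cell number per well after knock-down, printed as raw plate values; calls were based on per-plate z-scores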", "reading the numbers": "Kc cell number and S2R+ cell number: higher = more cells remaining", "hit rule": "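Active when the per-plate z-score of cell number is 3 or more in the direction of fewer cells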", "note": "The deposit covers about 21,000 reagents; this is an unselected part of those with a known target gene and a result. Over the whole deposit, 429 (2%) were called active. 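Values are raw and not normalised between plates; calls rest on per-plate z-scores that were not deposited.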 Entries without a mark were called inactive. Not given: the amount of reagent, the time to read-out."}
{"Target gene": "tow (target of wingless)", "DRSC id": "DRSC10192", "Kc cell number, rep 1": "9.33e5 (active)", "Kc cell number, rep 2": 1.02e6, "S2R+ cell number, rep 1": 5.30e5, "S2R+ cell number, rep 2": 6.58e5}
{"Target gene": "ATPsynGL (ATP synthase, subunit G-like)", "DRSC id": "DRSC03027", "Kc cell number, rep 1": 1.61e6, "Kc cell number, rep 2": 1.67e6, "S2R+ cell number, rep 1": 1.21e6, "S2R+ cell number, rep 2": 1.37e6}
{"Target gene": "Serinc (Serine incorporator)", "DRSC id": "DRSC11296", "Kc cell number, rep 1": 1.46e6, "Kc cell number, rep 2": 1.52e6, "S2R+ cell number, rep 1": 1.39e6, "S2R+ cell number, rep 2": 1.51e6}
{"Target gene": "CG4972", "DRSC id": "DRSC02798", "Kc cell number, rep 1": 1.61e6, "Kc cell number, rep 2": 1.72e6, "S2R+ cell number, rep 1": 1.27e6, "S2R+ cell number, rep 2": 1.42e6}
{"Target gene": "mRpL16 (mitochondrial ribosomal protein L16)", "DRSC id": "DRSC18550", "Kc cell number, rep 1": 5.47e5, "S2R+ cell number, rep 1": 7.65e5}
{"Target gene": "Prosbeta2 (Proteasome beta2 subunit)", "DRSC id": "DRSC11257", "Kc cell number, rep 1": "1.10e6 (active)", "Kc cell number, rep 2": 1.20e6, "S2R+ cell number, rep 1": 5.93e5, "S2R+ cell number, rep 2": 7.20e5}
{"Target gene": "Or33b (Odorant receptor 33b)", "DRSC id": "DRSC03387", "Kc cell number, rep 1": 1.57e6, "Kc cell number, rep 2": 1.71e6, "S2R+ cell number, rep 1": 1.25e6, "S2R+ cell number, rep 2": 1.41e6}
{"Target gene": "CG5096", "DRSC id": "DRSC02813", "Kc cell number, rep 1": 1.59e6, "Kc cell number, rep 2": 1.79e6, "S2R+ cell number, rep 1": 1.40e6, "S2R+ cell number, rep 2": 1.49e6}
{"Target gene": "pbl (pebble)", "DRSC id": "DRSC11381", "Kc cell number, rep 1": 1.38e6, "Kc cell number, rep 2": 1.43e6, "S2R+ cell number, rep 1": 1.29e6, "S2R+ cell number, rep 2": 1.24e6}
{"Target gene": "CG15167", "DRSC id": "DRSC02468", "Kc cell number, rep 1": 1.52e6, "Kc cell number, rep 2": 1.59e6, "S2R+ cell number, rep 1": 1.25e6, "S2R+ cell number, rep 2": 2.97e5}
{"Target gene": "CG12883", "DRSC id": "DRSC14570", "Kc cell number, rep 1": 1.42e6, "Kc cell number, rep 2": 1.43e6, "S2R+ cell number, rep 1": 9.62e5, "S2R+ cell number, rep 2": 1.12e6}
{"Target gene": "TfIIS (RNA polymerase II elongation factor)", "DRSC id": "DRSC03455", "Kc cell number, rep 1": 1.35e6, "Kc cell number, rep 2": 1.42e6, "S2R+ cell number, rep 1": 1.24e6, "S2R+ cell number, rep 2": 1.25e6}

A portion of the results above, for reference:
{"Target gene": "tow (target of wingless)", "DRSC id": "DRSC10192", "Kc cell number, rep 1": "9.33e5 (active)", "Kc cell number, rep 2": 1.02e6, "S2R+ cell number, rep 1": 5.30e5, "S2R+ cell number, rep 2": 6.58e5}
{"Target gene": "ATPsynGL (ATP synthase, subunit G-like)", "DRSC id": "DRSC03027", "Kc cell number, rep 1": 1.61e6, "Kc cell number, rep 2": 1.67e6, "S2R+ cell number, rep 1": 1.21e6, "S2R+ cell number, rep 2": 1.37e6}
